Laboratory results published in BindingDB's records for doi:10.1016/j.bmcl.2004.01.050 (Cnrs, 2004).
pIC50: −log10 of the molar value.

Target: T1, Casein kinase I isoform alpha (Rattus norvegicus, UniProt P97633)
T1 sequence (P97633 whole entry): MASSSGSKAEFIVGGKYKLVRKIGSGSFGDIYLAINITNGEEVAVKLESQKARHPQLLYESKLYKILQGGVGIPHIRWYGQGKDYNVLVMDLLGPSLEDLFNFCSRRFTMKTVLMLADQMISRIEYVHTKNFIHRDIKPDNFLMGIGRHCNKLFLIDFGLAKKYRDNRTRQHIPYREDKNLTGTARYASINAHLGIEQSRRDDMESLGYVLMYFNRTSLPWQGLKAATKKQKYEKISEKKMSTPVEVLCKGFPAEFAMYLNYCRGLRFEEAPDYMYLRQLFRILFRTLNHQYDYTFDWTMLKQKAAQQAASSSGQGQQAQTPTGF

Compound CC[C@H](CO)Nc1nc(NCc2ccccc2)c2ncn(C(C)C)c2n1 [2,6,9-Trisubstituted purine deriv. 28] has a pIC50 of 4.77.
